Results on four molecules are retold here after article doi:10.1101/2025.10.14.682030.

No constants are given. Whether binding was seen depends on the method and setting. Binding seen in cells or lysates may run through a third protein. These calls come from enrichment with a bait or labelling near it, and not all partners need be listed. Sequences can lack the tags named with a protein.

The labels stand for the following.
T1: MCUR1-StrepII-HA-His6 (mitochondrial calcium uniporter regulator 1, C-terminally tagged) (human) (UniProt Q96AQ8)
T1 sequence: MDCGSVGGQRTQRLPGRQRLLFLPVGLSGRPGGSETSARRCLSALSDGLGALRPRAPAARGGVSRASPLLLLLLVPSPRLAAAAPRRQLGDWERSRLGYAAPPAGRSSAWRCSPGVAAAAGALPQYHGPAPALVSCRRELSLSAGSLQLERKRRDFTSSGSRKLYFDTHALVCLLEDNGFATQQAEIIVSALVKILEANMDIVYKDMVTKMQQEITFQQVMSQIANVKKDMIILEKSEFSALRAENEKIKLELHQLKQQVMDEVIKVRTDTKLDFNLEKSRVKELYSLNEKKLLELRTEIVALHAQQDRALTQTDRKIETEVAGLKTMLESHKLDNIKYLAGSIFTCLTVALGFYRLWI

B1: Tryptophanyl-tRNA synthetase 2, mitochondrial (WARS2) (enzyme, UniProt Q9UGM6 19-360)
chain: LHKGSAAAPALQKDSKKRVFSGIQPTGILHLGNYLGAIESWVRLQDEYDSVLYSIVDLHSITVPQDPAVLRQSILDMTAVLLACGINPEKSILFQQSQVSEHTQLSWILSCMVRLPRLQHLHQWKAKTTKQKHDGTVGLLTYPVLQAADILLYKSTHVPVGEDQVQHMELVQDLAQGFNKKYGEFFPVPESILTSMKKVKSLRDPSAKMSKSDPDKLATVRITDSPEEIVQKFRKAVTDFTSEVTYDPAGRAGVSNIVAVHAAVTGLSVEEVVRRSAGMNTARYKLAVADAVIEKFAPIKREIEKLKLDKDHLEKVLQIGSAKAKELAYTVCQEVKKLVGFL
B2: Isoleucyl-tRNA synthetase 2, mitochondrial (IARS2) (enzyme, UniProt Q9NSE4 49-1012)
chain: SNHQPNSNSGRYRDTVLLPQTSFPMKLLGRQQPDTELEIQQKCGFSELYSWQRERKVKTEFCLHDGPPYANGDPHVGHALNKILKDIANRFHMMNGSKIHFVPGWDCHGLPIEIKVLSELGREAQNLSAMEIRKKARSFAKAAIEKQKSAFIRWGIMADWNNCYYTFDGKYEAKQLRTFYQMYDKGLVYRSYKPVFWSPSSRTALAEAELEYNPEHVSRSIYVKFPLLKPSPKLASLIDGSSPVSILVWTTQPWTIPANEAVCYMPESKYAVVKCSKSGDLYVLAADKVASVASTLETTFETISTLSGVDLENGTCSHPLIPDKASPLLPANHVTMAKGTGLVHTAPAHGMEDYGVASQHNLPMDCLVDEDGVFTDVAGPELQNKAVLEEGTDVVIKMLQTAKNLLKEEKLVHSYPYDWRTKKPVVIRASKQWFINITDIKTAAKELLKKVKFIPGSALNGMVEMMDRRPYWCISRQRVWGVPIPVFHHKTKDEYLINSQTTEHIVKLVEQHGSDIWWTLPPEQLLPKEVLSEVGGPDALEYVPGQDILDIWFDSGTSWSYVLPGPDQRADLYLEGKDQLGGWFQSSLLTSVAARKRAPYKTVIVHGFTLGEKGEKMSKSLGNVIHPDVVVNGGQDQSKEPPYGADVLRWWVADSNVFTEVAIGPSVLNAARDDISKLRNTLRFLLGNVADFNPETDSIPVNDMYVIDQYMLHLLQDLANKITELYKQYDFGKVVRLLRTFYTRELSNFYFSIIKDRLYCEKENDPKRRSCQTALVEILDVIVRSFAPILPHLAEEVFQHIPYIKEPKSVFRTGWISTSSIWKKPGLEEAVESACAMRDSFLGSIPGKNAAEYKVITVIEPGLLFEIIEMLQSEETSSTSQLNELMMASESTLLAQEPREMTADVIELKGKFLINLEGGDIREESSYKVIVMPTTKEKCPRCWKYTAESSDTLCPRCAEVVSGK
B3: Coiled-coil domain-containing protein 90B (CCDC90B), endogenous in HEK-293 (protein, UniProt Q9GZT6 43-254)
chain: GYDRRPVDITPLEQRKLTFDTHALVQDLETHGFDKTQAETIVSALTALSNVSLDTIYKEMVTQAQQEITVQQLMAHLDAIRKDMVILEKSEFANLRAENEKMKIELDQVKQQLMHETSRIRADNKLDINLERSRVTDMFTDQEKQLMETTTEFTKKDTQTKSIISETSNKIDAEIASLKTLMESNKLETIRYLAASVFTCLAIALGFYRFWK

The target in the assay is T1, MCUR1-StrepII-HA-His6 (mitochondrial calcium uniporter regulator 1, C-terminally tagged) (human). The assay can be described thus: affinity purification with mass spectrometry.
Regarding “Phenylalanyl-tRNA synthetase 2, mitochondrial (FARS2) (human (endogenous in HEK-293)) (enzyme)”, the binding result is “binds”.
The entry for B1 is “binds”; for B2 it is “binds”.
For B3 the value was “binds”.
